Measurements as given in patent US20150079113A1 (MIT, published 2015).

Protein sequences, listed by entry. Tags and fused reporters are not part of them. Residues count along the entry.
UniProt P11688, 45-1053: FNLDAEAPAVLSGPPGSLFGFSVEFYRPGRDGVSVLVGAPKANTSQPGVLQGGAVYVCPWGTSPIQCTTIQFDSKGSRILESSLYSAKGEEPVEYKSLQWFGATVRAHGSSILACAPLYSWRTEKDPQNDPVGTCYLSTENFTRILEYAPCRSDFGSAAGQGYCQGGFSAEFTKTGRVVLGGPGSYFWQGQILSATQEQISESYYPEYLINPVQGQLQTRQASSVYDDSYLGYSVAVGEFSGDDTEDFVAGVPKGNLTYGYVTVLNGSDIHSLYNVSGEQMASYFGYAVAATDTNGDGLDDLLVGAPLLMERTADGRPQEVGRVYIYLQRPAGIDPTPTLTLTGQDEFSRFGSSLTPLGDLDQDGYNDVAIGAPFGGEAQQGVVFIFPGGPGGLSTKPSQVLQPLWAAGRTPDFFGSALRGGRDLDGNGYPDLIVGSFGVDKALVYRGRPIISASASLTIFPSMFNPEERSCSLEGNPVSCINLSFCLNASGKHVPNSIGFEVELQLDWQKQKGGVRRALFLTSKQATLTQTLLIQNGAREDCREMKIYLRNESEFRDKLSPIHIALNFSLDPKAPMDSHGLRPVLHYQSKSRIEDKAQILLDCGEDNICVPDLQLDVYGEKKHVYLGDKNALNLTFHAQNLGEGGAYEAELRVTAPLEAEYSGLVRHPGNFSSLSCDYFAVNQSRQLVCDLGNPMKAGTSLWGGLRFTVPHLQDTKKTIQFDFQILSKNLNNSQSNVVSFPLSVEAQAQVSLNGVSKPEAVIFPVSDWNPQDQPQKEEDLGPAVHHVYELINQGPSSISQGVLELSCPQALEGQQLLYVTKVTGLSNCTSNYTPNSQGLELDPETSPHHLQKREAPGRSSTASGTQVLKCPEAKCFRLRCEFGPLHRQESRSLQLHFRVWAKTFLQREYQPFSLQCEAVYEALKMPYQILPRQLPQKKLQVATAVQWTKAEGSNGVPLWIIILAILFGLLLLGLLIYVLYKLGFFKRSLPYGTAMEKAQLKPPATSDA

Target: T1, α5 integrin (endogenous) (mouse, UniProt P11688 45-1053)
T1 construct: whole, on cells; Present in cells as the α5β1 heterodimer; detected by immunofluorescence or immunoprecipitated from lysates; also called endogenous α5; alpha5 integrin
Experiment: α5 immunoprecipitation from NIH3T3 cell lysates, western blot

- binding result: no binding
B1: Paxillin (endogenous) (other, UniProt Q8VI36 1-591, looked up)
chain: MDDLDALLADLESTTSHISKRPVFLSEEPPYSYPTGNHTYQEIAVPPPVPPPPSSEALNGTVLDPLDQWQPSGSRYAHQQPPSPLPVYSSSAKNSSASNTQDGVGSLCSRAGEEEHVYSFPNKQKSAEPSPTVMSSSLGSNLSELDRLLLELNAVQHSPPGFPADEAESSPPLPGALSPLYGIPENNTPLGGKAGPLVKEKPKRNGGRGLEDVRPSVESLLDELESSVPSPVPAITVNQGEMSSPQRVTSSQQQTRISASSATRELDELMASLSDFKMQGLEQRVDGERPWAAGWPPSSRQSSPEGQDEGGFMAQGKTGSSSPPGGLSKPGSQLDSMLGSLQSDLNKLGVATVAKGVCGACKKPIAGQVVTAMGKTWHPEHFVCTHCQEEIGSRNFFERDGQPYCEKDYHSLFSPRCYYCNGPILDKVVTALDRTWHPEHFFCAQCGAFFGPEGFHEKDGKAYCRKDYFDMFAPKCGGCARAILENYISALNTLWHPECFVCRECFTPFVNGSFFEHDGQPYCEVHYHERRGSLCSGCQKPITGRCITAMAKKFHPEHFVCAFCLKQLNKGTFKEQNDKPYCQSCFVKLFC
notes: whole, on cells
